# PubChem BioAssay AID2685 (National Center for Advancing Translational Sciences (NCATS), 2010)
# Some of the results follow. The main result of the screen is listed elsewhere. These columns were measured beside it and carry no call. Compounds called inactive in the main read-out are mostly missing here. The note in brackets gives the kind of curve behind each potency; many fits are weak.
# Assay: qHTS Assay for Lipid Storage Modulators in Drosophila S3 Cells;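 on cell number change: cells counted by Cell Tracker Red CMTPX staining in the red channel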
# Conditions: BODIPY lipid droplet fluorescence, 18-24 h; for cell number change: measured here: cell count max response, cells fed with added oleic acid
# Outline: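 Laser-scanning cytometry quantifies lipid droplet accumulation (500–530 nm total intensity; droplet/cell object ratio) in oleic acid-fed (400 uM added) Drosophila S3 cells treated with a concentration series. 20 uM Triacsin C defined 100% inhibition.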
# [1] = measured here: cell number channel AC50, cells fed with added oleic acid
# [2] = measured here: lipid fluorescence (Fed channel) AC50, cells fed with added oleic acid
smiles,measurement,setting,value
C/C(=N\NC(=O)Cc1cccn1C)c1cccc2ccccc12,cell number change,,-42.4%
same,AC50,[1],"8.2 µM [falling, partial curve]"
same,AC50,[2],"16.4 µM [rising, partial curve]"
O=C(NCc1ccco1)c1cccn2c(=O)c3cc4ccccc4cc3nc12,cell number change,,56.5%
same,AC50,[1],"0.517 µM [rising, full curve, poor fit]"
same,AC50,[2],"2.06 µM [rising, partial curve]"
CC1CCN(Cc2c(C(=O)N/N=C/c3cc(Cl)ccc3O)nnn2-c2nonc2N)CC1,cell number change,,23.9%
same,AC50,[2],"29.1 µM [rising, single point]"
COc1ccc(NC(=O)CSc2nnc(-c3ccccc3C)n2C)cc1,cell number change,,24.4%
same,AC50,[2],"0.651 µM [falling, full curve]"
COc1ccccc1NC(=O)N1CCCC1C(=O)NC12CC3CC(CC(C3)C1)C2 (centres undefined),cell number change,,-71.5%
same,AC50,[1],"8.2 µM [falling, partial curve]"
same,AC50,[2],"20.6 µM [falling, partial curve]"
N#Cc1ccc(NC(=O)c2cc(-c3cccs3)on2)cc1,cell number change,,-7.87%
same,AC50,[1],"1.3 µM [falling, single point]"
same,AC50,[2],"1.16 µM [falling, single point]"
Oc1[nH]c2ccc(Br)cc2c1N=Nc1ccc(F)cc1,cell number change,,-18.8%
O=C(O)c1ccc(-n2c(/C=C/c3cccc([N+](=O)[O-])c3)nc3ccccc3c2=O)cc1,cell number change,,23.4%
COc1cccc(C(=O)NNC(=O)C(=O)Nc2cccc(Cl)c2C)c1,cell number change,,-19%
same,AC50,[2],"29.1 µM [rising, single point]"
O=C(O)c1c(C(=O)O)c(-c2ccc(Br)cc2)n2c1CSC2,cell number change,,-33.6%
same,AC50,[1],"20.6 µM [falling, partial curve]"
same,AC50,[2],"14.6 µM [falling, partial curve]"
O=c1c2[nH]c3ccccc3c2ncn1CCN1CCCCC1,cell number change,,1.53%
same,AC50,[2],"3.26 µM [falling, single point]"
COc1ccc(CCC(=O)OCC(=O)Nc2ccc(C)c(S(=O)(=O)N(C)C)c2)cc1,cell number change,,2.97%
same,AC50,[1],"0.517 µM [rising, partial curve, poor fit]"
CC(/C=N/NC(=O)CSc1ccccn1)=C\c1ccc(C(C)C)cc1,cell number change,,9.92%
same,AC50,[2],"16.4 µM [rising, partial curve]"
COc1ccc(CC(=O)Nc2nc3n(n2)C(c2ccccc2)CC(=O)N3)cc1OC (centres undefined),cell number change,,-12.9%
same,AC50,[2],"25.9 µM [falling, single point]"
Clc1ccccc1OCc1nc(-c2ccc(Br)o2)no1,AC50,[2],"0.651 µM [rising, full curve, poor fit]"
O=C(C1CCCN(S(=O)(=O)c2cccnc2)C1)N1CCN(c2ccccn2)CC1 (centres undefined),cell number change,,-1.37%
same,AC50,[2],"1.46 µM [rising, full curve]"

# Part of the list above, with bars between the fields:
smiles | measurement | setting | value
Clc1ccccc1OCc1nc(-c2ccc(Br)o2)no1 | AC50 | [2] | 0.651 µM [rising, full curve, poor fit]
O=C(C1CCCN(S(=O)(=O)c2cccnc2)C1)N1CCN(c2ccccn2)CC1 (centres undefined) | cell number change |  | -1.37%
